Experiment [1] deals with human FLAG-MTMR5-AM1 (myotubularin-related 5; SET Binding Factor 1) (human) (UniProt O95248). Put plainly: co-IP.
Another experiment addresses myc-MTMR13 (human) (UniProt Q86WG5). Put plainly: co-IP.

Chains of the proteins cited; added tags and fusions are not shown. Lines headed by an entry give the natural chain unless they say otherwise; changes in a name come on top.
UniProt O95248: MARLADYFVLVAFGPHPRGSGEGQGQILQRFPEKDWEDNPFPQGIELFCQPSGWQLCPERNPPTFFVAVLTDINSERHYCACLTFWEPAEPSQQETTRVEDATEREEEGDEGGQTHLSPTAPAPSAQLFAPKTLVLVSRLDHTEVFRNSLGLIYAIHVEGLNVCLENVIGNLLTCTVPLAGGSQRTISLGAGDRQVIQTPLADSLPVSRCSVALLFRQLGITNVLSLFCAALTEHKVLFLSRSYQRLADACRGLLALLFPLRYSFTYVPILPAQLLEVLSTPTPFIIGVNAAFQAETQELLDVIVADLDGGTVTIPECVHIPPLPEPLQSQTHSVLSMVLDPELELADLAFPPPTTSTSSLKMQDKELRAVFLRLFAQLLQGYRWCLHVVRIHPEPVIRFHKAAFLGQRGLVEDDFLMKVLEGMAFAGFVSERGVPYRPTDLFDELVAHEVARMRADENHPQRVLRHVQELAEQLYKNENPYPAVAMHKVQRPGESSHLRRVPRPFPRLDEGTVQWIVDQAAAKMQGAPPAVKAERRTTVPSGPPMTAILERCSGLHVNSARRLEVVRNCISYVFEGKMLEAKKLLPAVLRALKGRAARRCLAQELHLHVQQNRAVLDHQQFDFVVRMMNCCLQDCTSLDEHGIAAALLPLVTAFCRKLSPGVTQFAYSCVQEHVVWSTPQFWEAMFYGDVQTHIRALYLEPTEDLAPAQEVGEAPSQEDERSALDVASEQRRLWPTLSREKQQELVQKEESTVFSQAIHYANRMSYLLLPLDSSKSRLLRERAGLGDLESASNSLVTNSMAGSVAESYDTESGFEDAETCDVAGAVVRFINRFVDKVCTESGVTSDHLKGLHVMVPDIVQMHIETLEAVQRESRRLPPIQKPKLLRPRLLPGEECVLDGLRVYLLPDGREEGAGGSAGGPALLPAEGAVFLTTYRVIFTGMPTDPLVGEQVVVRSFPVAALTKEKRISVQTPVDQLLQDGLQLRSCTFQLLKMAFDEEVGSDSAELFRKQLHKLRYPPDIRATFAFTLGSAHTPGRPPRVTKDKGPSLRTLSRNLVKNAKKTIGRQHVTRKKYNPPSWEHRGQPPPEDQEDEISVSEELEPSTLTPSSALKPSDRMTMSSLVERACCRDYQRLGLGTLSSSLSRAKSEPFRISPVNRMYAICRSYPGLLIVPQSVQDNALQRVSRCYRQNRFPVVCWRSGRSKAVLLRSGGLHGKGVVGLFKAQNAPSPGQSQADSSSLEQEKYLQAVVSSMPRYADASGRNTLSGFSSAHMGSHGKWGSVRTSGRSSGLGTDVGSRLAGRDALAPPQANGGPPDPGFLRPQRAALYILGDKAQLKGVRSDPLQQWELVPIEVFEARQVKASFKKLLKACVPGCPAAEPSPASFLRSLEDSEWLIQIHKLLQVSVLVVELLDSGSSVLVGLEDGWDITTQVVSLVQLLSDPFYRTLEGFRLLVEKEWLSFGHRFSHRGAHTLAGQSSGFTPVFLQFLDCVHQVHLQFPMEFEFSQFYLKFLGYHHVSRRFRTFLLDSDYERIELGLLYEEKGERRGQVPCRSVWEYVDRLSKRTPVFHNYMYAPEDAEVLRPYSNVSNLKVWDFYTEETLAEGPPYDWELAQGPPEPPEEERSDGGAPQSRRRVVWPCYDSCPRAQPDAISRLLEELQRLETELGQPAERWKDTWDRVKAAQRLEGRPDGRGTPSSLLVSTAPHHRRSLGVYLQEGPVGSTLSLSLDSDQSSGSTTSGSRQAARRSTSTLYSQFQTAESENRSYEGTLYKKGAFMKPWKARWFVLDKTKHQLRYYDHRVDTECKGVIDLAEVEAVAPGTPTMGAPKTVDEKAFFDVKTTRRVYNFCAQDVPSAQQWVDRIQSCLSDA
UniProt Q86WG5: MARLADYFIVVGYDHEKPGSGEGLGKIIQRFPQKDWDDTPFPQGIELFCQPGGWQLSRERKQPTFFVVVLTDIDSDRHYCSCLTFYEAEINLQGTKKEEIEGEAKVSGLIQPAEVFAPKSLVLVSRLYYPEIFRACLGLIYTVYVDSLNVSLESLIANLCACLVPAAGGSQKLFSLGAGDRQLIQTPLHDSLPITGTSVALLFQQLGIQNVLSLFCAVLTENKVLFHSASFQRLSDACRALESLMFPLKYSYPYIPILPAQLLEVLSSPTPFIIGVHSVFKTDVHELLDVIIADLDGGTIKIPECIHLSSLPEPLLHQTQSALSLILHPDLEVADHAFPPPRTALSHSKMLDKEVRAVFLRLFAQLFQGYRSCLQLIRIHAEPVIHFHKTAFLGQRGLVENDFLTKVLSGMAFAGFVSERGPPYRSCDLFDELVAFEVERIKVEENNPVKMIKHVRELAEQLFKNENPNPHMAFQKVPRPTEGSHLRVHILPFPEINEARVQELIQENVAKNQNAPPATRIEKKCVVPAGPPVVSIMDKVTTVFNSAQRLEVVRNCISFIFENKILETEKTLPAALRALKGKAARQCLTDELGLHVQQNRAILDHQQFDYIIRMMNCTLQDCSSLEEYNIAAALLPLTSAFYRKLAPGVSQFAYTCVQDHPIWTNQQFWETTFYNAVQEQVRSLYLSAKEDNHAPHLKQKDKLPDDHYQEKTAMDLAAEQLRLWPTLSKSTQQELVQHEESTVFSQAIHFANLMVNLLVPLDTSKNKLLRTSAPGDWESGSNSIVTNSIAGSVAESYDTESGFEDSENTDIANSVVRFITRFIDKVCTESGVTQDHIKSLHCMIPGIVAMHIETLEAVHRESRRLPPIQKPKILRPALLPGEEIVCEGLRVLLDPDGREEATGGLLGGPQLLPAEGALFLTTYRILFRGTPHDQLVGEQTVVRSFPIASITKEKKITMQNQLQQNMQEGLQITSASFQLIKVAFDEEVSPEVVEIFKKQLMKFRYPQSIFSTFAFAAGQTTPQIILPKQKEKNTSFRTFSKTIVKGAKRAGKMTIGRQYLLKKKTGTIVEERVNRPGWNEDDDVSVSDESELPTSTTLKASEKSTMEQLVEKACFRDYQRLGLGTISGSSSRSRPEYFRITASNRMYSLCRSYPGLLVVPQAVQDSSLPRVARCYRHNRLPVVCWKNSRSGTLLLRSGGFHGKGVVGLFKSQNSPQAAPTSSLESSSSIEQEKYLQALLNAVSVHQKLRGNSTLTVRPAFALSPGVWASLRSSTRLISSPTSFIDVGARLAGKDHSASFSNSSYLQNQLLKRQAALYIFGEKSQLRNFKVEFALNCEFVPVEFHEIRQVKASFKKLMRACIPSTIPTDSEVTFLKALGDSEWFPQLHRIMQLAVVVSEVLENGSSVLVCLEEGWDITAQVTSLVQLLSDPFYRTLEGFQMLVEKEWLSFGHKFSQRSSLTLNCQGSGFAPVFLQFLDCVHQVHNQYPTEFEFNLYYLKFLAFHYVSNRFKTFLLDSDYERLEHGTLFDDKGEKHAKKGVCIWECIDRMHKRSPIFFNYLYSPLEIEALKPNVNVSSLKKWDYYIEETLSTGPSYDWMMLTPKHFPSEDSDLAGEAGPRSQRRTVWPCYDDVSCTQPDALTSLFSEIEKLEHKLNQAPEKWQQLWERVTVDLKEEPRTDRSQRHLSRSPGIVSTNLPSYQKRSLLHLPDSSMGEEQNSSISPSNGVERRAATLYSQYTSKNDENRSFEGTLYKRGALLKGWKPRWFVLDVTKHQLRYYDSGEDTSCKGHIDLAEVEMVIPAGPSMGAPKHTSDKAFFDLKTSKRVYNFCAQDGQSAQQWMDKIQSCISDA
UniProt Q13614: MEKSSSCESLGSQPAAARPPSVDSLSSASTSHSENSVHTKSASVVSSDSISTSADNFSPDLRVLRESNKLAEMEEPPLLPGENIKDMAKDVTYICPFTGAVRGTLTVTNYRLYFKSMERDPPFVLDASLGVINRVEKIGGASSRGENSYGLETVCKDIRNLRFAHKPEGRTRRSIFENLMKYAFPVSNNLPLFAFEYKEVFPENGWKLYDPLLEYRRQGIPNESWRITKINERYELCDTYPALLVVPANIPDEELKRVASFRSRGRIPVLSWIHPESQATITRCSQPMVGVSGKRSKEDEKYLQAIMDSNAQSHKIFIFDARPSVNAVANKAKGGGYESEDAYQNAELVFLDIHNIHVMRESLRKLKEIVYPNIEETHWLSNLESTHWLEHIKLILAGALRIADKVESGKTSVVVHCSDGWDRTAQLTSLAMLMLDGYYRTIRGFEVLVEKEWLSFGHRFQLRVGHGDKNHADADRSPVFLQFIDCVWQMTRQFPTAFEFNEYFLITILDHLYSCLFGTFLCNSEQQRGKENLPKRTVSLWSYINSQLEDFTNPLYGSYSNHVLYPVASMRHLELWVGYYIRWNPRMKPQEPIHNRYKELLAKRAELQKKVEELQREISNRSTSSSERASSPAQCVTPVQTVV

The source of these data is publication doi:10.1101/843219.

No constants are given. Whether binding was seen depends on the method and setting. In cells and extracts the contact can be indirect. Binding can be weak; no strength is given.

“human EGFP-MTMR2 (myotubularin-related 2) (from UniProt Q13614 1-643)”: the binding result in experiment [1] was “binds”.

Turning to “human EGFP-MTMR13 (myotubularin-related 13; SBF2) (from UniProt Q86WG5 1-1849)”, the binding entry in experiment [1] is given as “binds weakly”.

With “human FLAG-MTMR5-AM1 (myotubularin-related 5; SET Binding Factor 1) (from UniProt O95248-1)”, the binding entry with myc-MTMR13 (human) is on record as “binds weakly”.
